Reference: article PMC12445474, “Conservation of heat stress acclimation by the IPK2-type kinases that control the synthesis of the inositol pyrophosphate 4/6-InsP7 in land plants” (PLOS Genetics, 2025)

Target: AtHSFA1b, nVENUS fusion for BiFC (Arabidopsis thaliana)
Experiment: split reporter; BiFC with nVENUS and cCFP fusions co-infiltrated by Agrobacterium GV3101 in N. benthamiana leaves; lower epidermal layer viewed by confocal microscopy

B1: AtIPK2β, cCFP fusion for BiFC (protein, UniProt Q9FLT2 1-300)
chain: MLKVPEHQVAGHIASDGKLGPLVDDQGRFFKPLQGDSRGEHEAKFYESFTSNMKVPDHIHRYFPVYHGTQLVEASDGSGKLPHLVLDDVVSGYANPSVMDVKIGSRTWYPDVSEEYFKKCIKKDRQTTTVSLGFRVSGFKIFDHQESSFWRAEKKLVLGYNADGARLALRKFVSSNSPADSNLTPNCAFASEVYGGCNGILAQLLELKDWFETQTLYHFNSCSILMIYENESILMQGGDDAPAPRAQVKLVDFAHVLDGNGVIDHNFLGGLCSFIKFIKDILQSVEKHDETDTSLLENGR
binding: binds

These are yes or no findings as the source states them, for the method shown. Binding seen in cells or lysates may run through a third protein. Binding can be weak; no strength is given. Where a sequence is shown, tags or fusion partners need not be part of it.
